Kd data for one sequence are collected here from article PMC8348300.

The exact form of at least one protein or probe is not confirmed.

This data set relates to human alpha-thrombin (Homo sapiens). The data set is described as follows: binding assay. The conditions noted are these: literature value, introduction prints 106 ± 5.1 nM; SPR (OpenSPR, immobilized thrombin): PBS, 0.005% Tween 20, 10 mM KCl, pH 7.4; TBA 1-16 uM (1-8 uM per Results), annealed 95 C 5 min then cooled to room temperature; commercial protein; folded or branched DNA.

As usually defined, the Kd is the free concentration of one partner at which half of the binding sites on the other are occupied at equilibrium, for simple one-to-one binding. A high value points to a looser complex. Sequence GGTTGGTGTGGTTGG [TBA (native)] displayed a Kd of 103 nM.
